Measured values reported in ChEMBL document CHEMBL1154797, “Synthesis, anti-bacterial and anti-fungal activities of some novel Schiff bases containing 2,4-disubstituted thiazole ring” (2010).
≈ marks a conversion by molar mass, not a printed value.

Assays:
Pseudomonas aeruginosa [1] = experiment: Antibacterial activity against Pseudomonas aeruginosa; format: functional
Pseudomonas aeruginosa [2] = experiment: Antibacterial activity against Pseudomonas aeruginosa at MIC after 24 hrs by disk diffusion assay; format: functional

Question: Which MIC (Pseudomonas aeruginosa [1]) does the source give for `O=C(O)c1cn(C2CC2)c2cc(N3CCNCC3)c(F)cc2c1=O` [CIPROFLOXACIN] here?
Answer: 3.12 µg/mL (≈ 9.42 µM)

Question: And the “diameter of the inhibition zone (DIZ)” value (Pseudomonas aeruginosa [2])?
Answer: <=24 mm
